Measured values reported in PubChem BioAssay AID743255 (National Center for Advancing Translational Sciences (NCATS), 2014).
The campaign covered roughly 390,000 compounds. About 910 (0.23%) were called active. The shares of active, inactive and inconclusive entries below differ from those in the screen. The call rests on the fitted dose curve; in most records, active means well fitted inhibition curve with a large enough effect; inconclusive means small, poorly fitted or top-dose-only effect; inactive means no such curve, though single readings can be large or run the other way. A potency beside an inconclusive call is a rough fit, not a confirmed value.

Sequences of proteins named here, by UniProt entry; tags and fusion partners are left off. A change or cut given only in a name is not applied to a line headed by its entry.
UniProt O94782: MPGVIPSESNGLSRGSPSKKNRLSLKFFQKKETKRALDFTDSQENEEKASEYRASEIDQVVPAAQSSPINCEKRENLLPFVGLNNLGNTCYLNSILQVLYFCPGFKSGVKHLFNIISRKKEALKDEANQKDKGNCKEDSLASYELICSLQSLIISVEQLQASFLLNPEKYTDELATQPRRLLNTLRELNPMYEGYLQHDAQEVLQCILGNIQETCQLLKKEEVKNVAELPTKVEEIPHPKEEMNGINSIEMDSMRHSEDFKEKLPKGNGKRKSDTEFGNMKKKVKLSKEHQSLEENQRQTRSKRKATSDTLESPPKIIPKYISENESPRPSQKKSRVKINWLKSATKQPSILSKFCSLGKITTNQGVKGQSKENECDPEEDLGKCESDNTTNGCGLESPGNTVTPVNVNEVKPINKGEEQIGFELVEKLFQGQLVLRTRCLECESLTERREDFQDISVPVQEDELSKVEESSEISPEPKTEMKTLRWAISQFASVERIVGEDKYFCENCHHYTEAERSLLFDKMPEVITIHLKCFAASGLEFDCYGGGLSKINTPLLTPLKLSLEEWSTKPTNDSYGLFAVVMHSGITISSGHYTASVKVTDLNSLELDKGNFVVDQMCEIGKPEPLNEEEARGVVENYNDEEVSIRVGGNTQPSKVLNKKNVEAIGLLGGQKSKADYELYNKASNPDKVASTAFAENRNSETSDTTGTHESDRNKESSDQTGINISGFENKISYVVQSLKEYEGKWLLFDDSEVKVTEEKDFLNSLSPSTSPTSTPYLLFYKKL

Each molecule was assayed against Ubiquitin carboxyl-terminal hydrolase 1 (Homo sapiens) (UniProt O94782) (assay: Inhibitors of USP1/UAF1: Primary Screen). Conditions: recombinant USP1/UAF1, Ub-Rhodamine cleavage fluorescence; activity change, negative = inhibition: at 57.1 µM (top of the series).
Method in brief: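 1 nM enzyme complex + cpd, 15 min RT; start with Ub-Rho 150nM final; kinetic fluorescence ex 480/em 540, 6 reads q60 s. Buffer 50mM HEPES pH 7.8, 0.5mM EDTA, 0.1 mg/ml BSA, 1mM TCEP, 0.01% Tween-20.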
Further: nearly all actives have a fitted effect of over 60% in size.
On the % scale 0 is the no-effect control and ±100 the full control effect; potency means the concentration at half of the fitted maximal effect.

Row | Structure (SMILES) | Potency | activity change, negative = inhibition
1 | Cc1c(O)c2c3c(cccc3c1O)C(=O)N(c1ccccc1)C2=O | inconclusive: 31.6 µM [inhibitor, partial curve, poor fit] | 
2 | Oc1c(Br)cc(Br)cc1C=Nc1ccc2c(c1)OCCO2 | inconclusive: 35.5 µM [inhibitor, partial curve] | 
3 | COc1cc(NC(=O)c2cnc(N)o2)cc(C(=O)Nc2cccc(C(F)(F)F)c2)c1 | inconclusive: 2.51 µM [inhibitor, full curve, poor fit] | 
4 | N#CC1=C(N)Oc2cc(O)ccc2C1c1ccc(Br)s1 (stereo unspecified) |  | inactive: -9.07%
5 | C[C@@H]1CN(C(=O)c2nc3ccc(Cl)cn3c2CN(C)CCc2cnn(C)c2)C[C@H](C)O1 |  | inconclusive: -33.9% [inhibitor]
6 | CCC(NC(=O)Nc1ccc(OC)c(OC)c1)c1c(-n2cccc2)sc2c1CCN(C)C2 (stereo unspecified) | inconclusive: 0.282 µM [inhibitor, full curve, poor fit] | 
7 | CC(C)(C)C(=O)Nc1cc(NC(=O)C(C)(C)C)cc(C(=O)Nc2c[nH]c(=O)[nH]c2=O)c1 | inconclusive: 12.6 µM [inhibitor, partial curve, poor fit] | 
8 | CCOC(=O)C1CCN(c2ncnc3c2nnn3Cc2ccccc2Cl)CC1 | inconclusive: 7.94 µM [inhibitor, partial curve, poor fit] | 
9 | Cc1cc(C)n(CC(O)COc2ccc3ccccc3c2)n1 (stereo unspecified) | inconclusive: 3.55 µM [inhibitor, partial curve] | 
10 | Cc1ccc(S(=O)(=O)N2N=C3CCCCC3C2(O)C(F)(F)F)cc1 (stereo unspecified) | inconclusive: 44.7 µM [inhibitor, partial curve, poor fit] | 
11 | O=C(CSc1cccc(C(F)(F)F)c1)Nc1ccc(Cl)cc1Cl | inconclusive: 44.7 µM [inhibitor, partial curve] | 
12 | Cn1c(Cn2c(=O)sc3ccccc32)nnc1SCC(=O)NC1CCCC1 |  | inactive: -9.72%
13 | CS(=O)(=O)N1CCc2cc(C(=O)Nc3ccc(Cl)c(C(F)(F)F)c3)ccc21 |  | inactive: -11.9%
14 | O=C(COC(=O)C1CCN(c2ccc(C(F)(F)F)cn2)CC1)Nc1ccc(Cl)cn1 |  | inactive: -21.5%
15 | Cc1ncc(CO)c2c1Oc1nc(-c3ccccc3)nc(SCC(=O)N3CCCCC3)c1C2 | inconclusive: 50.1 µM [inhibitor, partial curve, poor fit] | 
16 | O=C(CN1C(=O)CCC1=O)Nc1nc(-c2nc3ccccc3s2)cs1 | inconclusive: 63.1 µM [inhibitor, single point] | 
17 | CN1CCN(CCC(=O)Nc2cccc(Br)c2)CC1 | inconclusive: 0.282 µM [inhibitor, full curve, poor fit] | 
18 | Cc1csc(NC(=O)CSc2ncnc3c2cnn3-c2ccccc2Cl)n1 |  | inactive: -4.91%
19 | CCCCn1c(NC(=O)c2ccccc2Cl)c(C#N)c2nc3ccccc3nc21 | active: 14.1 µM | 
20 | CC1=Nc2cc(C(=O)NCc3ccc(C)cc3)ccc2Sc2ccc(Cl)cc21 | inconclusive: 0.282 µM [inhibitor, full curve] | 
21 | COC(=O)C(OC(=O)c1ccccc1)C(C)Br (stereo unspecified) | inconclusive: 3.16 µM [inhibitor, full curve] | 

Row | Structure (SMILES) | Potency | activity change, negative = inhibition
22 | CCOc1ccccc1NC(=O)Cn1c(=O)oc2cc(S(=O)(=O)NCc3ccccc3)ccc21 | inconclusive: 0.282 µM [inhibitor, full curve, poor fit] | 
23 | Cc1ccc(CNC(=O)C2CCN(S(=O)(=O)Cc3ccccc3)CC2)cc1 | inconclusive: 4.47 µM [inhibitor, full curve, poor fit] | 
24 | CN(C)c1ccc(CNC(=O)C2CCCN(S(=O)(=O)c3ccc4c(ccn4C)c3)C2)cc1 (stereo unspecified) | inconclusive: 1 µM [inhibitor, full curve] | 
25 | COc1ccc(C)cc1NC(=O)CN1C(=O)COc2ccc(S(=O)(=O)N3CCOCC3)cc21 | inconclusive: 35.5 µM [inhibitor, partial curve] | 
26 | Cc1ccc(NC(=O)C2=CCN(S(=O)(=O)c3ccc(F)cc3)CC2)c(C)c1 | inconclusive: 1.12 µM [inhibitor, full curve] | 
27 | Cc1nn(-c2ccccc2)c2[nH]c(=O)c(CNc3ccc4c(c3)OCCO4)cc12 | inconclusive: 35.5 µM [inhibitor, partial curve] | 
28 | COc1ccc(CNc2oc(/C=C/c3cc(OC)c(OC)c(OC)c3)nc2C#N)cc1 | inconclusive: 63.1 µM [inhibitor, partial curve, poor fit] | 
29 | COc1ccc2c(C)c(CCC(=O)NCc3ccccc3OC)c(=O)oc2c1 | inconclusive: 14.1 µM [inhibitor, partial curve] | 
30 | Cc1cc(C)c(NC(=O)CSC2=Nc3ccccc3C3=NC(CC(=O)NCc4cccs4)C(=O)N23)c(C)c1 (stereo unspecified) |  | inactive: -12.2%
31 | CC(C)c1ccc2c(c1)c(SC(C)(C)C)c(CC(C)(C)C(=O)O)n2Cc1ccc(Cl)cc1 | inconclusive: 56.2 µM [inhibitor, partial curve, poor fit] | 
32 | CCOC(=O)N1CCN(S(=O)(=O)N2CCCC(C(=O)NCc3cc(Br)ccc3OC)C2)CC1 (stereo unspecified) | inactive | 
33 | COc1ccc(C(=O)c2sc3nc(-c4ccccc4)ccc3c2N)cc1OC |  | inactive: -4.01%
34 | CCOc1ccc2nc(N/C(N)=N/C(=S)Nc3cccc(OC)c3)nc(C)c2c1 |  | inactive: -8.25%
35 | COc1cccc(Nc2nc3c(S(=O)(=O)c4cc(C)ccc4C)nnn3c3ccsc23)c1 | inconclusive: 0.1 µM [inhibitor, full curve, poor fit] | 
36 | O=c1[nH]n2c(=O)c3c([nH]c2c1N=Nc1cccc(C(F)(F)F)c1)CCCC3 | inconclusive: 31.6 µM [inhibitor, partial curve] | 
37 | O=C(Oc1oc(-c2ccco2)nc1C=Nc1ccccc1)c1ccco1 |  | inactive: -2.45%
38 | COc1ccc(CNC(=O)c2cc3cccc4c3n2CC(C)S4)cc1OC (stereo unspecified) | inconclusive: 12.6 µM [inhibitor, partial curve] | 
39 | O=C(COc1ccc(Cl)cc1)NCC(c1ccco1)S(=O)(=O)c1ccc(F)cc1 (stereo unspecified) | inconclusive: 5.01 µM [inhibitor, partial curve] | 
40 | CC(/C=C/c1ccccc1)=N\Nc1nc(-c2ccccc2)cs1 |  | inactive: -24.3%
41 | CCn1c(O)c(C#N)c(C)cc1=O | inconclusive: 22.4 µM [inhibitor, partial curve] | 

Single values from the entries so far:
Entry of CCOC(=O)N1CCN(S(=O)(=O)N2CCCC(C(=O)NCc3cc(Br)ccc3OC)C2)CC1 (stereo unspecified) under Potency: inactive
Entry of Cn1c(Cn2c(=O)sc3ccccc32)nnc1SCC(=O)NC1CCCC1 under activity change, negative = inhibition: inactive: -9.72%
Entry of COc1ccc(CNc2oc(/C=C/c3cc(OC)c(OC)c(OC)c3)nc2C#N)cc1 under Potency: inconclusive: 63.1 µM [inhibitor, partial curve, poor fit]
